“Also recorded” adds a separate entry of the source. Like-named read-outs stand apart in the source and are kept apart here. At least one peptide structure holds a part that was inferred or is arguable (an end, a ring closure or a residue). Marks after values point to notes of the source that are not given here. Where no end group is shown, it is not given here.
Tests used:
[1] = test system: mock-transfected parental cells; assay: Calcium mobilization in parental or mock-transfected rat basophil cell line; format: cell-based; conditions: rat basophil cell line without FPR
Method: (§1) Calcium mobilization was assayed by incubating 107/ml of monocytes, neutrophils or ETFR cells in loading buffer containing 138 mM NaCl, 6 mM KCl, 1 mM CaCl2, 10 mM HEPES (pH 7.4), 5 mM glucose, 0.1% BSA with 5 μM Fura-2 (Sigma) at 37° C. for 30 min. The dye-loaded cells were washed and resuspended in fresh loading buffer. The cells were then transfered into quartz cuvettes ([…] in 2 ml) which were placed in a luminescence spectrometer LS50 B (Perkin-Elmer Limited, Beaconsfield, England). Stimulants at different concentrations were added in a volume of 20 μl to the cuvettes at indicated time points. The ratio of fluorescence at 340 and 380 nm wavelength was calculated using the FL WinLab program (Perkin Elmer).

HEK 293 cells = assay: Calcium mobilization in parental or mock transfected HEK 293 cells; format: cell-based, human; conditions: control experiments
Method: (FIGS. 8C1, 8C2, 8F1, and 8F2).
as §1, with “monocytes, neutrophils, FPRL1” for “monocytes, neutrophils”, “ETFR transfectants” for “ETFR cells”, “then transferred” for “then transfered”

FPRL1 [2] = target: T1, FPRL1 (Homo sapiens, UniProt P25090); format: cell-based
T1 construct: expressed in transfected cells; host or cells: human embryonic kidney (HEK) 293 cells, designated FPRL1/293
T1 sequence (P25090 1-351): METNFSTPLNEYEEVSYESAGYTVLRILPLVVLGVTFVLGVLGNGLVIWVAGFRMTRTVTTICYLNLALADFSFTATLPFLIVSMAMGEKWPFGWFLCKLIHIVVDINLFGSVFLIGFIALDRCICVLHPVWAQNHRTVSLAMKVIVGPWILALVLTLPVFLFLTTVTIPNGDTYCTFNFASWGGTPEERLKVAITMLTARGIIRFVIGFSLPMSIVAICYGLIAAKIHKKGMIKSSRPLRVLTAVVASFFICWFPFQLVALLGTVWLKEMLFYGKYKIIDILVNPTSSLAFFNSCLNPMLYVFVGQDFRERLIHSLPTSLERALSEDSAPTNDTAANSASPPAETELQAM
Method: (Prossnitz and Ye, Pharmacol. Ther. 74: 73 (1997); Murphy, The N-formyl peptide chemotactic receptors, Chemoattractant ligands and their receptors. CRC Press, Boca Raton, p. 269 (1996); and Gao and M. Murphy, J. Biol. Chem. 268: 25395 (1993)).
as §1, with “monocytes, neutrophils, FPRL1” for “monocytes, neutrophils”, “ETFR transfectants” for “ETFR cells”, “then transferred” for “then transfered”

neutrophils = assay: Calcium mobilization (Fura-2) in human neutrophils; format: cell-based
FPRL1 [3] = target: T1, FPRL1; assay: Chemotaxis of FPRL1/293 cells; format: cell-based
Method: The chemotactic response of cells transfected with a nucleic acid encoding FPR or FPRL1 was tested as another sensitive parameter to assess the receptor targets of T21/DP107. (Gong et al., J. Biol. Chem. 273: 4289 (1998); Gong et al., J. Biol. Chem. 272:11682 (1997); and Ben-Baruch et al., J. Biol. Chem. 270: 22123 (1995)). Accordingly, different concentrations of T21/DP107 were placed in the lower wells of a chemotaxis chamber and a cell suspension was placed in the upper wells. The upper and lower wells were separated by polycarbonate filters precoated with mouse collagen type I. After incubation, the cells that migrated across the filters were stained and counted. […] The CI (chemotaxis index), which represents the fold increase of leukocyte migration in response to T21/DP107 over control medium, was also determined. […] (FIG. 9B).
Leukocytes, ETFR and FPRL1/293 cell migration was assessed using a 48-well microchemotaxis chamber technique as previously described. […] (90 min for monocytes, 60 min for neutrophils, 180 min for T cells and 300 min for ETFR or FPRL1/293 cells), the filters were removed, stained and the cells migrating across the filter were counted by light microscopy after coding the samples. […] The significance of the increase in cell migration was determined using Student's t test and CI≧2 was statistically significant compared to medium control (at least p<0.05).

[4] = test system: human peripheral blood monocytes; format: cell-based; conditions: for Number of migrated cells in 1HPF (mean ± SE): checkerboard
FPR [5] = target: T2, FPR (Homo sapiens, UniProt P21462); assay: Calcium mobilization (Fura-2) in ETFR cells transfected to express FPR; format: cell-based
T2 construct: expressed in transfected cells; host or cells: rat basophilic leukemia cells (ETFR), gift of Ali, Richardson and Snyderman, Duke University
T2 sequence (P21462 1-350): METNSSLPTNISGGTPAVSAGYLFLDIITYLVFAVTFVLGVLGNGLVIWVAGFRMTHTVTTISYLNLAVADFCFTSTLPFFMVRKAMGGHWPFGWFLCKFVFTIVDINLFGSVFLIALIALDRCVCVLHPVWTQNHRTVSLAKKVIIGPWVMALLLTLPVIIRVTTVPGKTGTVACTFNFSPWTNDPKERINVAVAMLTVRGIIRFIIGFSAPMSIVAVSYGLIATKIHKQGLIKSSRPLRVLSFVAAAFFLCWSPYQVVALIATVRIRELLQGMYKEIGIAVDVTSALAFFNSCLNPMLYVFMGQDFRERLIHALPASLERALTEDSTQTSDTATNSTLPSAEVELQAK

human neutrophils = format: cell-based
human CD3+ T lymphocytes = assay: Chemotaxis of CD3+ T lymphocytes; format: cell-based; conditions: high concentrations (5×10^−6 M and higher), marginally significant migration
FPR [6] = target: T2, FPR; assay: Chemotaxis of FPR expressing ETFR cells; format: cell-based; conditions: FIG. 9B
human monocytes = assay: Calcium mobilization (Fura-2) in human monocytes; format: cell-based

Sequence: NNLLRAIEAQQHLLQLTVWGIKQLQARILAVERYLKDQ [T21/DP107]
- Ca++ flux in parental or mock-transfected cells [1]: did not induce any
- Ca++ mobilization in parental or mock transfected HEK 293 cells (HEK 293 cells): did not induce any
- desensitization of fMLP-induced Ca++ mobilization (FPRL1 [2]; 293 cells transfected to express FPRL1): desensitizes
- concentration required to induce a change in the ratio of 0.6 at 340/380 nm wavelength fluorescence (FPRL1 [2]; FPRL1/293 cells): 5×10^−7
- induction of Ca++ mobilization in FPRL1 expressing cells (FPRL1 [2]; FPRL1/293 cells): induced
- minimal effective concentration to induce Ca++ mobilization (FPRL1 [2]; FPRL1 transfected cells (FPRL1/293 cells)): nM range
- concentrations at which Ca++ mobilizing activity was significant (neutrophils; neutrophils): significant at nM concentrations
- induction of Ca++ mobilization (neutrophils; neutrophils loaded with Fura-2): dose-dependent, and pertussis toxin sensitive
- desensitization of Ca++ flux induced by chemokines (neutrophils; neutrophils, IL-8, MCP-1, RANTES, MCP-3, MIP-1α (also SDF-1 for T21/DP107)): did not desensitize
- desensitization of the Ca++ effect of fMLP (neutrophils; neutrophils, T21/DP107 1 μM, fMLP 1 μM): desensitizes; also recorded: did not significantly desensitize
- concentrations inducing migration of FPRL1/293 cells (FPRL1 [3]): nM concentrations
- migration / chemotaxis of FPRL1/293 cells (FPRL1 [3]; wide range of concentrations): marked migratory response
- Number of migrated cells in 1HPF (mean ± SE) ([4]; T21 lower wells 10^−6 M, upper wells 10^−6 M): 57 ± 4^b
- Number of migrated cells in 1HPF (mean ± SE) ([4]; T21 lower wells 10^−6 M, upper wells 10^−7 M): 89 ± 6^b
- Number of migrated cells in 1HPF (mean ± SE) ([4]; T21 lower wells 10^−6 M, upper wells 10^−8 M): 110 ± 3^b
- Number of migrated cells in 1HPF (mean ± SE) ([4]; T21 lower wells 10^−6 M, upper wells Medium): 132 ± 6^b
- Number of migrated cells in 1HPF (mean ± SE) ([4]; T21 lower wells 10^−7 M, upper wells 10^−6 M): 26 ± 3
- Number of migrated cells in 1HPF (mean ± SE) ([4]; T21 lower wells 10^−7 M, upper wells 10^−7 M): 25 ± 4
- Number of migrated cells in 1HPF (mean ± SE) ([4]; T21 lower wells 10^−7 M, upper wells 10^−8 M): 43 ± 2^b
- Number of migrated cells in 1HPF (mean ± SE) ([4]; T21 lower wells 10^−7 M, upper wells Medium): 64 ± 3^b
- Number of migrated cells in 1HPF (mean ± SE) ([4]; T21 lower wells 10^−8 M, upper wells 10^−6 M): 10 ± 3
- Number of migrated cells in 1HPF (mean ± SE) ([4]; T21 lower wells 10^−8 M, upper wells 10^−7 M): 7 ± 2
- Number of migrated cells in 1HPF (mean ± SE) ([4]; T21 lower wells 10^−8 M, upper wells 10^−8 M): 28 ± 3
- Number of migrated cells in 1HPF (mean ± SE) ([4]; T21 lower wells 10^−8 M, upper wells Medium): 40 ± 4^b
- Number of migrated cells in 1HPF (mean ± SE) ([4]; T21 lower wells Medium, upper wells 10^−6 M): 9 ± 2
- Number of migrated cells in 1HPF (mean ± SE) ([4]; T21 lower wells Medium, upper wells 10^−7 M): 7 ± 1
- Number of migrated cells in 1HPF (mean ± SE) ([4]; T21 lower wells Medium, upper wells 10^−8 M): 11 ± 2
- concentrations at which chemotactic activity was significant ([4]; monocytes): significant at nM concentrations
- migration (microscopy of stained cells) ([4]; monocytes, 1 μM): migrated
- chemotactic cell response at high concentration ([4]; monocytes, 10^−5-10^−4 M): remained high with only slight reduction
- leukocyte migration / chemotactic activity in response to the peptide ([4]; monocytes, different concentrations in lower wells of chemotaxis chamber): migrate in a dose-dependent manner
- desensitization of fMLP-induced Ca++ mobilization (FPR [5]; ETFR cells transfected to express FPR): desensitizes; also recorded: much higher concentration of T21/DP107 was necessary to completely abolish
- concentration required to induce a change in the ratio of 2 at 340/380 nm wavelength fluorescence (FPR [5]; FPR expressing cells): 10^−5
- minimal effective dose to induce Ca++ mobilization (FPR [5]; FPR-transfected rat basophil leukemia cell line (ETFR cells)): low μM range
- induction of Ca++ mobilization in ETFR cells transfected to express FPR (FPR [5]; different concentrations): induced
- concentrations at which chemotactic activity was significant (human neutrophils): significant at nM concentrations
- migration (microscopy of stained cells) (human neutrophils; 1 μM): migrated
- chemotactic cell response at high concentration (human neutrophils; 10^−5-10^−4 M): remained high with only slight reduction
- leukocyte migration / chemotactic activity in response to the peptide (human neutrophils; different concentrations in lower wells of chemotaxis chamber): migrate in a dose-dependent manner
- chemotaxis index (CI) (human CD3+ T lymphocytes): 2
- concentrations required to induce migration of ETFR cells (FPR [6]): much higher concentrations
- concentrations at which Ca++ mobilizing activity was significant (human monocytes; monocytes): significant at nM concentrations
- induction of Ca++ mobilization (human monocytes; monocytes loaded with Fura-2): dose-dependent, and pertussis toxin sensitive
- desensitization of Ca++ flux induced by chemokines (human monocytes; monocytes, IL-8, MCP-1, RANTES, MCP-3, MIP-1α (also SDF-1 for T21/DP107)): did not desensitize
- desensitization of the Ca++ effect of fMLP (human monocytes; monocytes, T21/DP107 1 μM, fMLP 1 μM): desensitizes; also recorded: did not significantly desensitize

— patent US6830893B2 (priority 1999, dated 2004)
